# Values of other authors as cited in US20030212105A1, “Novel anti-fertility agent” (priority 2002, published 2003).
# At least one compound was matched to its structure with a doubt left.
# Assays:
# [1] = test system: adult female albino rats; details: 75 mg/kg i.v. or 150 mg/kg orally daily for 8 weeks; cited from earlier work
# [2] = test system: pregnant female rats; details: cited from earlier work
compound,measurement,setting,value
CNC(=C[N+](=O)[O-])NCCSCc1ccc(CN(C)C)o1 [Ranitidine],effect on female fertility,[1],significant inhibitory effect on female fertility
same,effect on ovulation,[1],inhibition of ovulation
same,serum concentration levels of both estradiol and progesterone,[1],significant drop
same,anti-implantation effects,"[2]; oral, daily for 1-7 days post coitum, pregnant female rats",exhibited anti-implantation effects
same,oestrogenic/anti-oestrogenic activity,[2]; rats,did not possess oestrogenic/anti-oestrogenic activity
